Source: ChEMBL document CHEMBL3988442, “University of Dundee, Small-Polar-MMV Screening Library” (2021).

Protein sequences, listed by entry. Tags and fused reporters are not part of them. Residues count along the entry.
UniProt Q4DA54, 1-478: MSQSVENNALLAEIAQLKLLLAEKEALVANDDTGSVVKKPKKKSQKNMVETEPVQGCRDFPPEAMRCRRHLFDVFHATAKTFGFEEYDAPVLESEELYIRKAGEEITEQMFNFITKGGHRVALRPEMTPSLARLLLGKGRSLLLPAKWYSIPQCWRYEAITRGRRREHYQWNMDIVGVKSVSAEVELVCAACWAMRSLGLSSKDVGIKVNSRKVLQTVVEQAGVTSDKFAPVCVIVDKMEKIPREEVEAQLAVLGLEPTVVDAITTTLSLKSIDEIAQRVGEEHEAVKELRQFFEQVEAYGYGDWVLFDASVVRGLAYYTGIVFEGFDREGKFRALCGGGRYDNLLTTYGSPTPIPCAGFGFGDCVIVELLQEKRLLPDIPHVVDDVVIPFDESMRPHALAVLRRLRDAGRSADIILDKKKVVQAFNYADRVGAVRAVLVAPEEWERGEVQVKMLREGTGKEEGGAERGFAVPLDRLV

Values are the deposited “Percent Effect”, in %.
How 0% and 100% were set is not recorded. Most values in the screen are low, and negative values occur.
The compounds are a random part of those screened.

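Histidine-tRNA ligase, Trypanosoma cruzi CL Brener (UniProt Q4DA54). Enzyme assay of histidyl-tRNA synthetase; the read-out is not stated. Tested at 30 µM. Higher reads as stronger inhibition (inferred: compounds with an IC50 in retests scored well above the rest). About 69,000 compounds were tested under these conditions; 0.045% (about 31) showed 50% or more at least once.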

structure | effect
Cc1nn(C)c(Oc2cccc(F)c2)c1NC(=O)C1CCCO1 (configuration not stated) | 6.18
O=C(c1cc(F)cc(Cl)c1)N1CCN(CCO)[C@@H]2CS(=O)(=O)C[C@@H]21 | 9.278
CCCOc1ccccc1CN[C@@H]1CCC[C@H]1Cc1cc(C)no1 | 12.09
O=C(CSCC1CC1)N1CCCC(c2nccn2Cc2cccnc2)C1 (configuration not stated) | -1.02
CC(C)Cn1[nH]cc/c1=N\C(=O)CN1CCOC(Cn2cccn2)C1 (configuration not stated) | 5.882
CCN(CC)c1ncc(CNCC2CCCn3ccnc32)s1 (configuration not stated) | 6.145
COCCN1CCC(c2nc3c([nH]2)CCCNC3=O)CC1 | -2.4
CC(C)c1nnc2n1CC(CNCc1nnc(C(C)(C)C)o1)CC2 (configuration not stated) | 6.667
Cc1cc(C)c(CNC(=O)N(C)Cc2ccc(F)cc2)c(=O)[nH]1 | 4.624
COCCS(=O)(=O)NC(C)c1cccc(-n2cccn2)c1 (configuration not stated) | -5.882
CC(C)CN1CCCC1c1cc[nH]n1 (configuration not stated) | 14.66
CCNC(=O)NC1CCCN(c2ccc(C)cc2)C1=O (configuration not stated) | 7.182
CCOC(C)c1noc(CN2CCNCC2)n1 (configuration not stated) | 7.097
Cc1ccc(N2CCCC(NCc3nnc(-c4ccco4)o3)C2)nn1 (configuration not stated) | 13.2
COc1cc(C(=O)N(Cc2cnn(C)c2)C(C)C)ccc1OC(C)C | 2.89
O=C(c1ccnn1COc1ccc(Cl)cc1)N1CCOCC1 | -0.5181
CCN1CC(C(=O)N2CCc3cc(C(=O)N(C)C)n(C)c3C2)CCC1=O (configuration not stated) | 1.149
Cc1oncc1C(=O)NCc1cc(=O)n2c(n1)CN(C)CCC2 | 4.918
CC(C)c1nc2n(n1)CC(NCc1nnnn1C1CC1)CC2 (configuration not stated) | -2.256
CCCN(C(=O)c1ccc(-n2ccnn2)cc1)c1cccnc1 | 4.04
NC(=O)CN1CC2(CCC1=O)CCN(Cc1cc(F)ccc1Cl)CC2 | -1.245
CCc1nccn1C1CCCN(C(=O)c2cn3cccnc3n2)C1 (configuration not stated) | 8.271
CCc1cc(N2CCCC(c3noc(CC)n3)C2)ncn1 (configuration not stated) | 0
Cc1ccc(NCCNC(=O)c2cc(CC(C)C)n[nH]2)nn1 | 5.528
Cc1noc(Cl)c1CC(=O)N1CCCC1Cn1cccn1 (configuration not stated) | 1.345
Cc1nc(Cn2c3c(ccc2=O)CCN(CC2CCC2)CC3)cs1 | 1.604
Cc1ccc(F)c2c1N(C(=O)c1cn(CC(=O)N(C)C)nn1)CCC2 | 5
COc1cccc(C(=O)NS(=O)(=O)c2cncc(Br)c2)c1OC | 8.205
CCOC(=O)C1CN(CC2CC2)Cc2ncn(CC)c21 (configuration not stated) | 3.448
CCOCCCC(=O)Nc1c(-c2ccc(F)cc2)ncn1C | 6.061
COc1cc(N2CC[C@@H](O)[C@@H]2Cc2ccncc2)ncn1 | 14.29
CC(C)N1CCC(CC(=O)N(C)C(C)c2cncs2)CC1 (configuration not stated) | 1.657
Cn1ncc2c1CN(Cc1ccc(F)cc1)CC2COCC1CC1 (configuration not stated) | 4.386
CN(Cc1ccccc1)CC(O)Cn1cnc2ccc(Br)cc2c1=O (configuration not stated) | 4.985
CCc1ncnc(N2CCOCC2C2CC2)c1F (configuration not stated) | 2.97
O=C(c1cc(-n2cnnn2)ccc1Cl)N1CCOCC1 | 2.484
CCCc1ccc(C(=O)N2CCc3c(nc(C)nc3N(C)C)C2)cc1 | 16.83
FC(F)(F)c1ccc(CN2CCN(Cc3cscn3)CC2)cc1 | 10.92
COc1ccc(CNc2cc3[nH]c(O)nc3cc2C)cc1 | 8.247
Cn1ccnc1CN1CCC2(CCC(=O)N2CCN2CCCC2)CC1 | 0.9524
CCc1ncc(C(=O)NCCNC(=O)Cc2ccc(F)cc2)s1 | 0.4149
CCNC(=O)[C@@H]1C[C@H](NC(=O)c2cncnc2C)CN1Cc1ccsc1 | 1.212
COc1ccc(-c2csc3c2c(N)nc(=O)n3CC(N)=O)cc1 | 2.924
O=C(c1ccccc1)N1CC2(CCNC2)OCc2ccccc21 (configuration not stated) | 6.509
CN(Cc1cnn(C)c1)C1CCN(c2cccc(-c3cscn3)c2)CC1 | -0.5236

Once more, the final 5:

| structure | effect |
|---|---|
| `CCc1ncc(C(=O)NCCNC(=O)Cc2ccc(F)cc2)s1` | 0.4149 |
| `CCNC(=O)[C@@H]1C[C@H](NC(=O)c2cncnc2C)CN1Cc1ccsc1` | 1.212 |
| `COc1ccc(-c2csc3c2c(N)nc(=O)n3CC(N)=O)cc1` | 2.924 |
| `O=C(c1ccccc1)N1CC2(CCNC2)OCc2ccccc21` (configuration not stated) | 6.509 |
| `CN(Cc1cnn(C)c1)C1CCN(c2cccc(-c3cscn3)c2)CC1` | -0.5236 |